Data published in PubChem BioAssay AID1347076 (National Center for Advancing Translational Sciences (NCATS), 2019).
Screen size: about 400,000 compounds; about 13,000 (3.2%) were called active. Inconclusive means that the source gave no clear call. Such entries were picked first, then a sample of the others. Calls come from the whole dose curve; as a rule, active = well fitted cell-killing curve with a large enough effect; inconclusive = small, poorly fitted or top-dose-only effect, or effect the other way; inactive = flat fitted curve, though single readings scatter. Where the call is inconclusive, the potency comes from a doubtful curve fit.

Test: qHTS assay for MDR1-selective chemotherapeutics: Primary screen using the drug-selected MDR subline cells KB-V1; note: nearly all actives have a fitted effect of over 60% in size
Conditions: KB-V1 MDR cells viability, CellTiter-Glo, 72 h; activity change, negative = cytotoxicity: at 46.1 µM (top of the series)
Outline: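 qHTS viability screen in drug-selected KB-V1 MDR cells: 72 h compound treatment at 37 degrees C, ATP luminescence end point.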
% is set by controls: 0 for no effect and ±100 for the full control effect; potency is the fitted concentration of half-maximal effect.

Structure (SMILES)	Potency	activity change, negative = cytotoxicity
O=C(CNC(=O)c1ccccc1)OCN1C(=O)c2ccccc2C1=O	inconclusive: 2.91 µM [cytotoxic, partial curve, poor fit]	
CC(C)(C)CN1CCNC(=O)C1CC(=O)NC1Cc2ccccc2C1 (centres undefined)	inconclusive: 3.26 µM [rising, partial curve, poor fit]	
CC(C)Cn1c(N)c(S(=O)(=O)c2cccs2)c2nc3ccccc3nc21	inconclusive: 20.6 µM [cytotoxic, single point]	
CCCC(=O)Nc1cc(C(=O)O)ccc1Sc1ccccc1	inconclusive: 29.1 µM [cytotoxic, single point]	
COc1ccc(OC)c(N=C(C)C2=C(O)COC2=O)c1	inconclusive: 29.1 µM [cytotoxic, single point]	
CC[C@H](C)[C@@H]1NC(=O)[C@@H](CC(C)C)NC(=O)[C@H](C(C)C)NC(=O)[C@H]2CSSC[C@H](NC1=O)C(=O)N2	inactive	
O=C(CNc1cccc2ccccc12)N/N=C/c1cccc(Oc2ccccc2)c1	inactive	
CCCCCCN1C[C@H](n2cc(COC(=O)c3ccccc3)nn2)[C@@H](O)C[C@@H]1c1ccc(OC)cc1	inactive	
Cc1nn(-c2ccccc2)c(C)c1NC(=O)COc1ccc(C#N)cc1	active: 18.4 µM	
Cn1c(=NC(=O)CSCC(=O)N2CCCCC2)sc2ccccc21	inconclusive: 14.6 µM [cytotoxic, partial curve]	
CC(C)CCC(O)(c1ccccc1)C(CN1CCOCC1)c1ccccc1 (centres undefined)	inconclusive: 29.1 µM [cytotoxic, single point]	
O=C(Cn1cc(C(=O)c2ccco2)c2ccccc21)Nc1ccccc1F	inconclusive: 8.2 µM [cytotoxic, partial curve]	
CCCCCC(=O)N1C[C@@H](O)[C@H](n2cc(-c3ccc(F)cc3)nn2)C[C@@H]1c1ccc(Cl)cc1	inconclusive: 9.2 µM [cytotoxic, partial curve, poor fit]	
C#CCOc1ccc(CNC[C@H]2O[C@@H](n3ccc(N)nc3=O)[C@H](O)[C@@H]2O)cc1	inactive	
O=C(O)c1ccc(CNCc2ccc(Cl)cc2)s1	inconclusive: 29.1 µM [rising, single point]	
Cc1nn(Cc2ccc(F)cc2)c(C)c1NC(=O)c1noc2c1CCCCC2	inconclusive: 29.1 µM [cytotoxic, single point]	
C#CCOCCOCCOCCNc1nc(N2CCN(C(=O)[C@H](CCCCN)n3cc(CC(C)O)nn3)CC2)nc(N2CCN(C(=O)[C@H](CCCCN)n3cc(CC(C)O)nn3)CC2)n1 (some centres undefined)	inconclusive: 0.0092 µM [rising, full curve, poor fit]	
O=C(c1ccccc1)c1cccc(NC(=O)c2ccc(Br)o2)c1	inconclusive: 16.4 µM [cytotoxic, single point]	
O=C(NC(=S)Nc1ccccn1)c1cncc(Br)c1	inactive	
COc1ccccc1CN1CC(C(=O)NCCn2ccc(C)n2)CCC1=O (centres undefined)	inconclusive: 29.1 µM [rising, single point]	
COc1ccc(S(=O)(=O)N2CCN(Cc3c[nH]c4ccccc34)CC2)cc1	inactive	
COc1ccc(/C=N/NC(N)=S)cc1OC(=O)c1ccccc1	inconclusive: 18.4 µM [cytotoxic, single point]	
C=CCOc1ccccc1CN1CCCN(C)CC1	inactive	

Structure (SMILES)	Potency	activity change, negative = cytotoxicity
CCCc1cc(=O)[nH]c(SCC(=O)NC2CC2)n1	inconclusive: 20.6 µM [rising, single point]	
COc1ccc(/C=N/NC(=O)c2cccnc2)cc1CSc1ccccn1	inconclusive: 29.1 µM [cytotoxic, single point]	
COc1ccc(NC(=O)CC2C(=O)N(c3ccc(OC)cc3)C(=O)N2CCc2cccs2)cc1 (centres undefined)	active: 14.6 µM	
COc1ccc(C(=O)N2N=C(c3cccc(OC)c3)CC2(O)C(F)(F)F)cc1 (centres undefined)	inconclusive: 18.4 µM [cytotoxic, single point]	
CSc1ncnc2c1ncn2CCCN1CCN(Cc2cccc3ccccc23)CC1	inconclusive: 6.51 µM [cytotoxic, partial curve]	
COc1cc(C(C)=O)ccc1OCCN1CCC(Cc2ccccc2)CC1	inconclusive: 6.51 µM [cytotoxic, partial curve]	
CC(C)C(C)NC(=O)COC(=O)/C=C/c1ccc(S(=O)(=O)N2CCc3ccccc32)cc1 (centres undefined)	inconclusive: 29.1 µM [cytotoxic, single point]	
CC1CN(CCC(=O)Nc2ccccc2F)CC(C)O1 (centres undefined)	inactive	
CC(=O)c1ccc(N2CCN(C(=O)CCCn3c(=S)[nH]c4cc5c(cc4c3=O)OCO5)CC2)cc1	inconclusive: 5.17 µM [cytotoxic, full curve]	
C/C(=N\N=C1/NC(=O)C(C)S1)c1ccc([N+](=O)[O-])cc1 (centres undefined)	inconclusive: 9.2 µM [rising, partial curve, poor fit]	
O=C(COc1ccccc1Cl)OCc1cc(=O)n2nc(-c3cccs3)sc2n1	inactive	
Cn1nccc1NS(=O)(=O)c1ccc(C(C)(C)C)cc1	inconclusive: 4.11 µM [rising, full curve, poor fit]	
COc1cccc(-c2sc3ccc(OC)cc3c2-c2ccc(OCCN3CCOCC3)cc2)c1	inconclusive: 16.4 µM [cytotoxic, single point]	
CCCOc1ccccc1C1CC(=O)Nc2cc3c(cc21)OCO3 (centres undefined)	active: 4.61 µM	
CN(C)c1ccc(/C=C2\CCC/C(=C\c3ccccc3)C2=O)cc1	active: 18.4 µM	
CCN1C(=NCCOC)N[C@@H](c2cccc(F)c2)C(C(=O)OC)=C1C	inconclusive: 29.1 µM [rising, single point]	
Cc1ccc(N(CCC#N)C(=O)CSc2nc3ccccc3c(=O)[nH]2)cc1	inconclusive: 8.2 µM [cytotoxic, partial curve, poor fit]	
O=S(=O)(O)c1ccc(N=Nc2ccccc2)cc1	inactive	
CCc1nc2ccc(C(=O)Nc3ccc(OC)c(OC)c3)cn2c1N(CC)Cc1cccc(Br)c1	inconclusive: 25.9 µM [cytotoxic, single point]	
C=CCn1c(CCNC(=O)c2ccc(Cl)c(Cl)c2)nnc1SCCOc1ccc(OC)cc1	active: 5.17 µM	
COc1ccc(NC(=O)c2cc3c(-c4ccc(OC)c(OC)c4)nn(C)c3s2)cc1OC	inconclusive: 23.1 µM [cytotoxic, single point]	
CC1CN(C(=O)CCN2C(=O)c3ccccc3C2=O)CC(C)O1 (centres undefined)	inconclusive: 20.6 µM [rising, single point]	
O=C(CSCc1cc(=O)[nH][nH]1)Nc1ccc(F)cc1		inconclusive: 51.6%

For reference, part of the list above.
Structure (SMILES)	Potency	activity change, negative = cytotoxicity
COc1ccccc1CN1CC(C(=O)NCCn2ccc(C)n2)CCC1=O (centres undefined)	inconclusive: 29.1 µM [rising, single point]	
COc1ccc(S(=O)(=O)N2CCN(Cc3c[nH]c4ccccc34)CC2)cc1	inactive	
COc1ccc(/C=N/NC(N)=S)cc1OC(=O)c1ccccc1	inconclusive: 18.4 µM [cytotoxic, single point]	

Next part

Structure (SMILES)	Potency	activity change, negative = cytotoxicity
CCCCCn1c(=O)[nH]c2cc(C(=O)NCCCN(C)Cc3ccccc3)ccc2c1=O	active: 20.6 µM	
CNc1nc2[nH]c(=O)c3c(c2s1)OC(N)=C(C#N)C3c1ccccc1 (centres undefined)	inconclusive: 20.6 µM [rising, single point]	
CCNc1nc(NCC)nc(-n2nc(C)cc2C)n1	inconclusive: 23.1 µM [cytotoxic, single point]	
O=C(CSc1nnc(Cn2nnc3ccccc32)o1)N(Cc1ccc(F)cc1)c1ccccc1	inconclusive: 3.26 µM [cytotoxic, full curve, poor fit]	
O=C(NCCN1CCOCC1)C(=O)c1c[nH]c2ccccc12	inactive	
COc1ccc2c(c1)c1c(c(=O)n(-c3ccc(F)c(Cl)c3)c(=O)n1CC(=O)N1CCCC1)n2C	inactive	
COc1ccccc1C(=O)Nc1ccc(Oc2nnc(-c3ccc(C)cc3)c3ccccc23)cc1	inactive	
CON(C)S(=O)(=O)c1cccc(C(=O)NC2CCSc3ccccc32)c1 (centres undefined)	inconclusive: 16.4 µM [cytotoxic, single point]	
O=C(Nc1ccc(S(=O)(=O)NC2CCCCC2)cc1)c1ccc(Br)o1	inconclusive: 7.31 µM [cytotoxic, partial curve]	
C/C(=N\NC(=O)c1ccc(O)cc1O)c1cccnc1	inactive	
CCOC(=O)[C@H]1[C@H]2COc3cc(OC)ccc3[C@@H]2N2C(=O)c3cc(OC)c(OC)cc3NC(=O)[C@@]12C	inconclusive: 14.6 µM [rising, single point]	
O=C(C(=Cc1ccc(F)cc1)C(=O)c1ccccc1)c1ccccc1	active: 20.6 µM	
COc1cc(-c2nnc(SC/C=C/c3ccccc3)n2N)cc(OC)c1OC	inconclusive: 10.3 µM [cytotoxic, partial curve]	
OC(COc1ccc(F)cc1)CN1CCN(c2ccccc2F)CC1 (centres undefined)	inactive	
CSC[C@H]1CN(c2ccccc2)C(=O)[C@@H]1CC(=O)Nc1ccccc1	inactive	
O=C(CC12CC3CC(CC(C3)C1)C2)NC(Cc1ccccc1)C(=O)O (centres undefined)	inconclusive: 29.1 µM [rising, single point]	
CN=C(Nc1ccc2c(c1)OCO2)SC1CC(=O)N(c2ccccc2)C1=O (centres undefined)	active: 18.4 µM	
CN(C)c1ccc(C=O)cc1		inconclusive: 129%
Cc1cc(C)nc(SCC(=O)Nc2ccccc2[N+](=O)[O-])n1	active: 23.1 µM	
O=C(NCc1ccc(Cl)c(Cl)c1)c1cc(C2CCCCN2C(=O)CCc2ccccc2)on1 (centres undefined)	inactive	
CCc1c(C(=O)NC2CCCc3ccccc32)[nH]c(C)c1C(C)=O (centres undefined)	inactive	
COc1ccc(S(=O)(=O)N2CCCCCC2)cc1NC(=O)Cc1ccc(OC)c(OC)c1	inconclusive: 16.4 µM [cytotoxic, single point]	
O=C(CSc1ncnc2[nH]ncc12)Nc1nc(-c2ccc(F)c(F)c2)cs1	inconclusive: 20.6 µM [cytotoxic, single point]	
